The test deals with T1, FLAG-tagged full-length NLRP1 S1213A (autoproteolysis-deficient) (human), Q9C000.
T1 chain: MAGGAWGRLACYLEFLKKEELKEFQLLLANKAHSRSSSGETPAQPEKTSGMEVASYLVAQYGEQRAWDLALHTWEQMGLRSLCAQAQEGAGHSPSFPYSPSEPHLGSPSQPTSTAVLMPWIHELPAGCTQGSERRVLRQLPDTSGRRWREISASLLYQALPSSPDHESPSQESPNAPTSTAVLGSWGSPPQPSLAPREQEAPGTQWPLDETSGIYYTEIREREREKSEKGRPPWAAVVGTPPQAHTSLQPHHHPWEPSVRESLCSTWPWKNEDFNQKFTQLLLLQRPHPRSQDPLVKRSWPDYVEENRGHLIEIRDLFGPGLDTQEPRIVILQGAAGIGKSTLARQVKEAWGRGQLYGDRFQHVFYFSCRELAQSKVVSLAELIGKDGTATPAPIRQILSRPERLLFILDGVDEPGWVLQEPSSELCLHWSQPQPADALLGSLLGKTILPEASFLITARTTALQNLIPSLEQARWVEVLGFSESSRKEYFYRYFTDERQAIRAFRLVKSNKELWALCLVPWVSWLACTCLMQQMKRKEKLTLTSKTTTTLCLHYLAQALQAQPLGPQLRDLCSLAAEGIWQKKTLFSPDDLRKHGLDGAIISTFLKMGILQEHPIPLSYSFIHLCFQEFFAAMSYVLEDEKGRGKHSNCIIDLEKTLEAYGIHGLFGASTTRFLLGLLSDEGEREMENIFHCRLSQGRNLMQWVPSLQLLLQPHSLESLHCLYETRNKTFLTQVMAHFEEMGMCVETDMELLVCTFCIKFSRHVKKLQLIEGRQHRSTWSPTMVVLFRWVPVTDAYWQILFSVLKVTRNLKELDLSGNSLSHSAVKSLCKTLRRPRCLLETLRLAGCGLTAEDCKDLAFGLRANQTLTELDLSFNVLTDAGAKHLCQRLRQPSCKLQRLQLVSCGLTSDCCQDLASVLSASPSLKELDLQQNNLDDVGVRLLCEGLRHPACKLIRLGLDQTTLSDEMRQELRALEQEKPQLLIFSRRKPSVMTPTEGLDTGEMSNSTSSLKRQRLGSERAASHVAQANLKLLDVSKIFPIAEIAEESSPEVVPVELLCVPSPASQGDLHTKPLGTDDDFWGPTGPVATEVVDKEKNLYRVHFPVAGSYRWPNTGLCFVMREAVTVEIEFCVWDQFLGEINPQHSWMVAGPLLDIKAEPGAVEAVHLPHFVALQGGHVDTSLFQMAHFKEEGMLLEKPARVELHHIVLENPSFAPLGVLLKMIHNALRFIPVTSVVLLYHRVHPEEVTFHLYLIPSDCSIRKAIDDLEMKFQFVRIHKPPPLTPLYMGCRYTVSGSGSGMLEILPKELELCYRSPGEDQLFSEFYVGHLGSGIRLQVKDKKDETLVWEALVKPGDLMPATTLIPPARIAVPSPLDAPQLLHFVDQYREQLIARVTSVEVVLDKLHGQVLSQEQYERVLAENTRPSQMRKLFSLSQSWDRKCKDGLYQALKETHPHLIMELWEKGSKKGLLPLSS
Kind of test: co-IP. As to conditions: remark: other sources report otherwise.

These are yes or no findings as the source states them, for the method shown. In cells and extracts the contact can be indirect. Tags and fused reporters may be left off the sequences shown.

B1: DPP9, short isoform, N-terminal His tag (His-TEV-DPP9), wild type, for co-immunoprecipitation, Q86TI2-1 1-863 (enzyme)
chain: MATTGTPTADRGDAAATDDPAARFQVQKHSWDGLRSIIHGSRKYSGLIVNKAPHDFQFVQKTDESGPHSHRLYYLGMPYGSRENSLLYSEIPKKVRKEALLLLSWKQMLDHFQATPHHGVYSREEELLRERKRLGVFGITSYDFHSESGLFLFQASNSLFHCRDGGKNGFMVSPMKPLEIKTQCSGPRMDPKICPADPAFFSFINNSDLWVANIETGEERRLTFCHQGLSNVLDDPKSAGVATFVIQEEFDRFTGYWWCPTASWEGSEGLKTLRILYEEVDESEVEVIHVPSPALEERKTDSYRYPRTGSKNPKIALKLAEFQTDSQGKIVSTQEKELVQPFSSLFPKVEYIARAGWTRDGKYAWAMFLDRPQQWLQLVLLPPALFIPSTENEEQRLASARAVPRNVQPYVVYEEVTNVWINVHDIFYPFPQSEGEDELCFLRANECKTGFCHLYKVTAVLKSQGYDWSEPFSPGEDEFKCPIKEEIALTSGEWEVLARHGSKIWVNEETKLVYFQGTKDTPLEHHLYVVSYEAAGEIVRLTTPGFSHSCSMSQNFDMFVSHYSSVSTPPCVHVYKLSGPDDDPLHKQPRFWASMMEAASCPPDYVPPEIFHFHTRSDVRLYGMIYKPHALQPGKKHPTVLFVYGGPQVQLVNNSFKGIKYLRLNTLASLGYAVVVIDGRGSCQRGLRFEGALKNQMGQVEIEDQVEGLQFVAEKYGFIDLSRVAIHGWSYGGFLSLMGLIHKPQVFKVAIAGAPVTVWMAYDTGYTERYMDVPENNQHGYEAGSVALHVEKLPNEPNRLLILHGFLDENVHFFHTNFLVSQLIRAGKPYQLQIYPNERHSIRCPESGEHYEVTLLHFLQEYL
With B1, the binding result was “no binding”.
